Results published in patent EP2439195B1, “NAPHTHALENE CARBOXAMIDE DERIVATIVES AS INHIBITORS OF PROTEIN KINASE AND HISTONE DEACETYLASE, PREPARATION METHODS AND USES THEREOF” (Shenzhen Chipscreen Biosciences, Ltd., priority 2009, dated 2010).
For at least one compound, name, drawing or mass did not settle the structure.

System: total HDAC enzyme
Experiment: In vitro total HDAC enzyme activity (HDAC Fluorimetric Assay/Drug Discovery Kit, HeLa cell nuclear extract)
Format: biochemical
Description: The in vitro total HDAC enzyme activity was determined by HDAC Fluorimetric Assay/Drug Discovery Kit (BIOMOL) according to manufacture's instruction. The principle of the experiment is as follows: under the action of histone deacetylase (in the experiment, HeLa cell nuclear extract, which was rich in a variety of subtypes of HDAC, was used), an acetyl group is removed from a special substrate Fluor de Lys, thus the free amino is exposed. Upon Developer is added, the substrate will produce fluorescence. For the fluorescence, excitation wavelength is 360nm, and emission wavelength is 460nm. More fully the substrate deacetylated, more higher the fluorescence induced. In the absence of inhibitors, the fluorescence value is taken as the control; when inhibitor is existed, fluorescence value induced will be reduced, while in the case no enzyme is existed (corresponding to the completely inhibition of enzyme activity) the fluorescence value is blank. Generally, after suppression the fluorescence values will be between the control and blank. When analysis is made, blank will be used as 0, and the control will be used as 1. Smaller value means higher inhibitory activity. 1. […]
2. […] Read fluorescence of samples on a microtiter-plate reading fluorimeter at a excitation wavelength of 369 nm and a emitted wavelength of 451 nm.

Nc1cc(F)ccc1NC(=O)c1ccc(CNC(=O)/C=C/c2cccnc2)cc1 [CS055, Chidamide, reference compound]
% inhibition of total HDAC enzyme activity at 30µM: 50.4%
